Reference: article PMC9495943, “Recombinant Expression of Archaeal Superoxide Dismutases in Plant Cell Cultures: A Sustainable Solution with Potential Application in the Food Industry” (Antioxidants, 2022)
These are yes or no findings as the source states them, for the method shown. Some results given as binding are weak or reduced against the parent protein; the word gives no strength.

Biological target: Superoxide dismutase (Mn/Fe-dependent SOD) from Aeropyrum pernix K1 (Aeropyrum pernix K1) (UniProt Q9Y8H8)
Assay: SEC; data not shown; partially purified SODAp, gel filtration on Superdex 200 as for SODSs; both purified

binding: binds
B1: Superoxide dismutase (Mn/Fe-dependent SOD) from Aeropyrum pernix K1 (enzyme, UniProt Q9Y8H8 1-214)
chain: MVSFKRYELPPLPYNYNALEPYIIEEIMKLHHQKHHNTYVKGANAALEKIEKHLKGEIQIDVRAVMRDFSFNYAGHIMHTIFWPNMAPPGKGGGTPGGRVADLIEKQFGGFEKFKALFSAAAKTVEGVGWGVLAFDPLTEELRILQVEKHNVLMTAGLVPILVIDVWEHAYYLQYKNDRGSYVENWWNVVNWDDVEKRLEQALNNAKPLYLLPQ
